The list shows a part of the results.
Key:
Experiment in all cases: log2 fold change, soluble protein after heating vs DMSO (PISA); higher = thermal stabilisation; K562 lysate, 10 uM; active = over 0.2 and 3.5 SD of the protein, either way, in both replicates (recomputed)
erlotinib = compound: C#Cc1cccc(Nc2ncnc3cc(OCCOC)c(OCCOC)cc23)c1 [erlotinib]
Summary of the method: (§1)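 Soluble protein was defined as the supernatant remaining after 21,000xg for 90 min, following pooling of heated aliquots and adjustment to 0.5% NP-40 at 4°C. Before that, crude K562 extract at 1 mg/mL protein in PBS pH 7.4 with 1 mM MgCl2 was treated with 10 μM compound for 30 min and heated for 3 min across 48°C-58°C. Quantification used TMTpro 16plex LC-MS/MS with channel sums equalised, and values are log-two fold changes in thermal stability relative to solvent controls from duplicates.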

Sequences of proteins named here, by UniProt entry; tags and fusion partners are left off. A change or cut given only in a name is not applied to a line headed by its entry.
UniProt Q9BRT3: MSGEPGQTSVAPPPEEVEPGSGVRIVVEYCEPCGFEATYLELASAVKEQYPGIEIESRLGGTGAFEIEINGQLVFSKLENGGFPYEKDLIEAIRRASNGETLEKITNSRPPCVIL
UniProt P39210: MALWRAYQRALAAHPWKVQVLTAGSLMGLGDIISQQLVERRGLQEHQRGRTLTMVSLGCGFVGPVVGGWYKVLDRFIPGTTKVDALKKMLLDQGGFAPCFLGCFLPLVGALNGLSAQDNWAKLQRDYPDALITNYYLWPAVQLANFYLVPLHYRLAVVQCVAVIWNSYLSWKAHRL
UniProt Q8IYU8: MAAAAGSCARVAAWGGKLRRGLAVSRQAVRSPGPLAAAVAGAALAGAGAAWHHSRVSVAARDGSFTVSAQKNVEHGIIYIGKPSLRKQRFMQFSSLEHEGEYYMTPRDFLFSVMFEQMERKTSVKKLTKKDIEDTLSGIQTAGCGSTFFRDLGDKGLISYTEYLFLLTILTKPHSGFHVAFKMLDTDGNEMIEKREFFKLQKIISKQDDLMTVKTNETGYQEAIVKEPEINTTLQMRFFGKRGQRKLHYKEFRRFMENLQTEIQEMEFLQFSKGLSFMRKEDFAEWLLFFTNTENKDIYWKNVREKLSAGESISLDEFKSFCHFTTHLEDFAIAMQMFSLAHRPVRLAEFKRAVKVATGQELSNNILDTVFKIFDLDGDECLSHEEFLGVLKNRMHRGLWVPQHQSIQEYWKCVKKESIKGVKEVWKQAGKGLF
UniProt Q9BV20: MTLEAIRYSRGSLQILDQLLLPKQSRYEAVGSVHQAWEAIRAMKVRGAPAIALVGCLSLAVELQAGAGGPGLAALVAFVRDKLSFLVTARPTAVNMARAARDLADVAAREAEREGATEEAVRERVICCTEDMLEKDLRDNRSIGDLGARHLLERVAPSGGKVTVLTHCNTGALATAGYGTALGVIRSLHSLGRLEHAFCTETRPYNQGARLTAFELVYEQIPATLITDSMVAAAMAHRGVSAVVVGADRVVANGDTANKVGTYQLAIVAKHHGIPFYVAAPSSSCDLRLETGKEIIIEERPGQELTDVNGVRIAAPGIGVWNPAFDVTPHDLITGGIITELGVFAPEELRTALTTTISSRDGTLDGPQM
UniProt Q86TA1: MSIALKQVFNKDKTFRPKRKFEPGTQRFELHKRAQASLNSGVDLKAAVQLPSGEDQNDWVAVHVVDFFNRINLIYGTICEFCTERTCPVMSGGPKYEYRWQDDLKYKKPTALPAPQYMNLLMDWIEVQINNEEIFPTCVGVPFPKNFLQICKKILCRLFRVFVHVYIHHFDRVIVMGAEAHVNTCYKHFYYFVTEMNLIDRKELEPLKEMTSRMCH
UniProt Q9NQG6: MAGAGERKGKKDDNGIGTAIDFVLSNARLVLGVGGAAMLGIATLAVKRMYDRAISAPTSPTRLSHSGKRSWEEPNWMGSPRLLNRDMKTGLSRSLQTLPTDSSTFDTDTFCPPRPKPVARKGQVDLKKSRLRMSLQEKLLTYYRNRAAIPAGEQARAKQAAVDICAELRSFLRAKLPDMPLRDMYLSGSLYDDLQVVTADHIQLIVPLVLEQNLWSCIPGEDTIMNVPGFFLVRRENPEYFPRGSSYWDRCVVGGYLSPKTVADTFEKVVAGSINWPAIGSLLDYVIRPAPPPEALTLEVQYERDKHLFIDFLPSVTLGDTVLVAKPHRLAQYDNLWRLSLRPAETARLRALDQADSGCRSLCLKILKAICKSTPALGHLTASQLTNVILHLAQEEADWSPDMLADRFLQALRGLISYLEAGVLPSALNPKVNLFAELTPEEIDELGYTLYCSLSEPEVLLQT
UniProt A9UHW6: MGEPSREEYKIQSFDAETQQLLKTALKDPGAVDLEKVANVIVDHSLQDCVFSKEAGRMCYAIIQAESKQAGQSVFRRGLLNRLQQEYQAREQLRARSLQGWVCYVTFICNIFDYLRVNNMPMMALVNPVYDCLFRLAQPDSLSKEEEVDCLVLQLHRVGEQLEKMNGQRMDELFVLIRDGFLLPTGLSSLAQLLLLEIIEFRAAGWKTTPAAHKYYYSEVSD
UniProt Q9H8M7: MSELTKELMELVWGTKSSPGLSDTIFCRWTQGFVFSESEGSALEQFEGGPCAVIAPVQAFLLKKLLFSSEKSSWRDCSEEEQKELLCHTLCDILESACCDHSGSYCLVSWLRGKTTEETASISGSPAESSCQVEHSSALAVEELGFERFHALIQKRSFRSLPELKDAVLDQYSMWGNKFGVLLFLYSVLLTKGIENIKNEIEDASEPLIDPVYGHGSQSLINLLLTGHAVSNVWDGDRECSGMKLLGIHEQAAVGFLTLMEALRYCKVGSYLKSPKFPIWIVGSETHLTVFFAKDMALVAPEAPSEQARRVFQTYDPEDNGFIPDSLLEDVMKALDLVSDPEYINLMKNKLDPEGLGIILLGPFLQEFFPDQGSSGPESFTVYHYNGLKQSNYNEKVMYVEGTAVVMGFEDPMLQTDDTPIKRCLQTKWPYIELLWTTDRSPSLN
UniProt Q8WV92, whole entry, looked up: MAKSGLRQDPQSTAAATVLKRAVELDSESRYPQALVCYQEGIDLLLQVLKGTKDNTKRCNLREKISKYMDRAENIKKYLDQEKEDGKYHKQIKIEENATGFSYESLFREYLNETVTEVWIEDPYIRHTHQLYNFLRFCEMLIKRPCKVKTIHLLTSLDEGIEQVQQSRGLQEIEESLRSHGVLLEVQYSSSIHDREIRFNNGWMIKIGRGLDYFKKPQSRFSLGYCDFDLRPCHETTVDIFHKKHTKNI
UniProt Q567V2: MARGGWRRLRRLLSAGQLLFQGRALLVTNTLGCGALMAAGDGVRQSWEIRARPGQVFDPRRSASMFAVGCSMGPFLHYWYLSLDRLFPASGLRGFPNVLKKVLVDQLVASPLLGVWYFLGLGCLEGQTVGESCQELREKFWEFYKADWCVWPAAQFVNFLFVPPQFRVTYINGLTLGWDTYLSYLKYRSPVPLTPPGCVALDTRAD
UniProt Q6IN84: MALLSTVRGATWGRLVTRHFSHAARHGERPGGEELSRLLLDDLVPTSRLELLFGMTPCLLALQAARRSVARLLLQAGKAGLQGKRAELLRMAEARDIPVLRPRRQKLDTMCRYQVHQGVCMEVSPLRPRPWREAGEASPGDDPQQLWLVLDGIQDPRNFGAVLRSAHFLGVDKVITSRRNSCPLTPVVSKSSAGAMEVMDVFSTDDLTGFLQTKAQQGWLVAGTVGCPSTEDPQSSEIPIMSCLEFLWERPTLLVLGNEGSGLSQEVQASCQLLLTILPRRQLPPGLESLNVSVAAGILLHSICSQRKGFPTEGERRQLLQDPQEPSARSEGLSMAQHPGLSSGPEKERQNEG
UniProt Q9BVC4, whole entry, looked up: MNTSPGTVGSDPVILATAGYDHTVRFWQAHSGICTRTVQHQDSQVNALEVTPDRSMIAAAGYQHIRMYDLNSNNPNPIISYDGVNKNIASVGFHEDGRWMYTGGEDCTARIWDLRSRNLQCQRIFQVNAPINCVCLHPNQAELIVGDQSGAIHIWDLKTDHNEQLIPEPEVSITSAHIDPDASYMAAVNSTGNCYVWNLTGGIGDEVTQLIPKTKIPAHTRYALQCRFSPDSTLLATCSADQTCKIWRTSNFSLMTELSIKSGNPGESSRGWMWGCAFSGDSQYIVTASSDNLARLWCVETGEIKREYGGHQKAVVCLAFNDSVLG
UniProt Q8N108: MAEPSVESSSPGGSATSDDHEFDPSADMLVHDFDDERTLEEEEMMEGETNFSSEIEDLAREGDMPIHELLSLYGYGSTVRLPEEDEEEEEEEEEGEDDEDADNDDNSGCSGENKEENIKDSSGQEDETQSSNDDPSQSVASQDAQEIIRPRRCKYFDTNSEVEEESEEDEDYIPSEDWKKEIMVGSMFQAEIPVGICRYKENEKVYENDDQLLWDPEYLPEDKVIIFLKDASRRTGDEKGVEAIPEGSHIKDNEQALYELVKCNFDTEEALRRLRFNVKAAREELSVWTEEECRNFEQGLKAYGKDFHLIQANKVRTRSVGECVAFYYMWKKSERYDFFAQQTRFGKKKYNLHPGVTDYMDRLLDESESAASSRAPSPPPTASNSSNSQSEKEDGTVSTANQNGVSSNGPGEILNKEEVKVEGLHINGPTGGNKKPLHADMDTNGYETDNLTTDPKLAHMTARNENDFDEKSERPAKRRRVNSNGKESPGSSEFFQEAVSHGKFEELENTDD
UniProt Q9NPA3, whole entry, looked up: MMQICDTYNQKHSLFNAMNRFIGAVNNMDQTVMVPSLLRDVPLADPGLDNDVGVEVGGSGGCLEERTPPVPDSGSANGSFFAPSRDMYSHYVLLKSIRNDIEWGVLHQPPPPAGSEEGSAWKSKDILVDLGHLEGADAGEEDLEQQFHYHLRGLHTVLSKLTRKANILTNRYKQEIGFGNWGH
UniProt Q8TDZ2: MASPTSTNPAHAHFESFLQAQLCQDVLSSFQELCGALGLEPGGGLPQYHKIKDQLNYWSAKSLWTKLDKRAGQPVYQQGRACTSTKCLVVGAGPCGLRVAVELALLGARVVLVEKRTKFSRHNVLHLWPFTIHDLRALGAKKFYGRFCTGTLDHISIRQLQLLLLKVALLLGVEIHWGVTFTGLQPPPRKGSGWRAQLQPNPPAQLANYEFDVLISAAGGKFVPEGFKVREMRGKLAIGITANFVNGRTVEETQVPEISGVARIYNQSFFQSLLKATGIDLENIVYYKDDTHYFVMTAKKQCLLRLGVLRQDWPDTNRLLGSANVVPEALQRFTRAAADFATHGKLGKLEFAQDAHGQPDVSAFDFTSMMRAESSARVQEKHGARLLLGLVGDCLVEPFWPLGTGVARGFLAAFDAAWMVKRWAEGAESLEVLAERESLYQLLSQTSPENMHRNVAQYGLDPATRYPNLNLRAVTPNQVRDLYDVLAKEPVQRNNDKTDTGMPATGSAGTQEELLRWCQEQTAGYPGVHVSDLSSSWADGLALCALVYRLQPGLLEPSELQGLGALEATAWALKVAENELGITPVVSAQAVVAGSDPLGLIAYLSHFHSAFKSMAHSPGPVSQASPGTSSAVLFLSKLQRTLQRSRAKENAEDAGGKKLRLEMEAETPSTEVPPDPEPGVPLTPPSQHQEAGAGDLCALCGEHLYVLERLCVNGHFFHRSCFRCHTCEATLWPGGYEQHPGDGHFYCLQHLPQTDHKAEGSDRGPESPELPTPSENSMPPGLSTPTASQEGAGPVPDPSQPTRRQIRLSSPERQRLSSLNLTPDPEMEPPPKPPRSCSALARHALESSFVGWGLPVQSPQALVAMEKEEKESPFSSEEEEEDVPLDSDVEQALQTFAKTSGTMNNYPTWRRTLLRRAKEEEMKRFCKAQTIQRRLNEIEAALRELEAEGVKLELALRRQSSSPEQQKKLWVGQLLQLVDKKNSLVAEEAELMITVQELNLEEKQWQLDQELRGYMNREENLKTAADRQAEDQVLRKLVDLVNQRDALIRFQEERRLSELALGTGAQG
UniProt O96007: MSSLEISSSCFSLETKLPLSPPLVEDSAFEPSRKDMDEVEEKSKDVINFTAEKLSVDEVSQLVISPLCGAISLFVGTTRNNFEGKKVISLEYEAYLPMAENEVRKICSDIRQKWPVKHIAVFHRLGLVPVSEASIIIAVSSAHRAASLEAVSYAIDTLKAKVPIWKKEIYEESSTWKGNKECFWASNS
UniProt Q9NYP9: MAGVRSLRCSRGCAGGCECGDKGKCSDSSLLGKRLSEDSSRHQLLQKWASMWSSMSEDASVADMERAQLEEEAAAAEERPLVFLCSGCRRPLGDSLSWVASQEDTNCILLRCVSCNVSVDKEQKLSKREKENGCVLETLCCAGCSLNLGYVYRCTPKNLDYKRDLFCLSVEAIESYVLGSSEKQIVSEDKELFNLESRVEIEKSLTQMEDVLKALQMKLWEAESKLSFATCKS
UniProt Q5XKP0: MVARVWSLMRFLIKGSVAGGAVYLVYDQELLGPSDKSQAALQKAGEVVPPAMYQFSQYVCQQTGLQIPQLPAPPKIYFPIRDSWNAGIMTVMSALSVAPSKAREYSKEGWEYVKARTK
UniProt Q9Y5U8: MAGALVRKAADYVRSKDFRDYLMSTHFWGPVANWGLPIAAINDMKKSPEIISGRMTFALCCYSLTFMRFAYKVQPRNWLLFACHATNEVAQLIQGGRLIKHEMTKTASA
UniProt P29372, whole entry, looked up: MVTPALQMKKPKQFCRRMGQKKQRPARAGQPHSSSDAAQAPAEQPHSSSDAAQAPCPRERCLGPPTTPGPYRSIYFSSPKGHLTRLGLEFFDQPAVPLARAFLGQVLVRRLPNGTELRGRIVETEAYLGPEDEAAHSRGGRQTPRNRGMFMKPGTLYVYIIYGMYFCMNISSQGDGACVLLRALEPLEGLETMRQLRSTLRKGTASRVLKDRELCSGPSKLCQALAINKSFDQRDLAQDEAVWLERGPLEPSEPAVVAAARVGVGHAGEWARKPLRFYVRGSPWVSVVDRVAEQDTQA
UniProt O14880: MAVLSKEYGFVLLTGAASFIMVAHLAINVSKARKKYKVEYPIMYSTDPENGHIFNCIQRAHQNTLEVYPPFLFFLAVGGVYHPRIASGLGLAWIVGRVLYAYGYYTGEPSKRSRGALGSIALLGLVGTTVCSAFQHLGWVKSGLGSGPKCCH

[1] = compound: C/C(=N\NC(=O)C1=CC(=CC=C1)S(=O)(=O)N2CCOCC2)/C3=C(C=CC(=C3)Cl)O
Summary of the method: as §1

[2] = compound: C1=CC(=CC=C1C2=NC3=C(N2)C=C(C=C3)C(=O)N)OC4=CC=C(C=C4)Cl
Summary of the method: as §1

[3] = compound: C1=CC2=C(C=CC(=C2)/C=C\3/C(=O)NC(=NCC4=CC=CS4)S3)N=C1
Summary of the method: as §1

[4] = compound: C1=CC2=NC=CN=C2C=C1/C=C/3\C(=O)NC(=O)S3
Summary of the method: as §1

[5] = compound: C1=CC=C(C=C1)C2=NC(=C(N2)C3=CC=NC=C3)C4=CC(=C(C=C4)Cl)O
Summary of the method: as §1

[6] = compound: C1=CC=C2C(=C1)C3=NNC4=CC=CC(=C43)C2=O
Summary of the method: as §1

[7] = compound: C1CCN(C1)C(=O)NC2=CC=CC(=C2)NC3=NC=C(C(=N3)NCCC4=CN=CN4)Br
Summary of the method: as §1

[8] = compound: C1CN(CCC1(CC2=CC=C(C=C2)Cl)N)C3=NC=NC4=C3C=CN4
Summary of the method: as §1

IRAK-1-4 Inhibitor I = compound: C1COCCN1CCN2C3=CC=CC=C3N=C2NC(=O)C4=CC(=CC=C4)[N+](=O)[O-] [IRAK-1-4 Inhibitor I]
Summary of the method: as §1

Measured: log2 fold change

MRPL10 isoform 2 (UniProt Q7Z7H8)
inactive: erlotinib -0.032 | [1] 0 | [2] 0.043 | [3] 0.022 | [4] -0.141 | [5] -0.002 | [6] -0.016 | [7] -0.062 | [8] 0.015 | IRAK-1-4 Inhibitor I 0.014

MGAT5 (UniProt Q09328)
inactive: erlotinib 0.037 | [1] 0.03 | [2] 0.087 | [3] 0.044 | [4] 0.078 | [5] -0.003 | [6] 0.132 | [7] -0.03 | [8] 0.066 | IRAK-1-4 Inhibitor I -0.05

MIEN1 (UniProt Q9BRT3)
inactive: erlotinib 0.02 | [1] 0.036 | [2] -0.063 | [3] 0.022 | [4] -0.049 | [5] -0.007 | [6] -0.021 | [7] -0.027 | [8] 0.047 | IRAK-1-4 Inhibitor I -0.026

MRPL12 (UniProt P52815)
inactive: erlotinib 0.046 | [1] -0.02 | [2] -0.013 | [3] 0.041 | [4] -0.015 | [5] -0.015 | [6] 0.014 | [7] -0.007 | [8] 0.077 | IRAK-1-4 Inhibitor I -0.029

MPV17 (UniProt P39210)
inactive: erlotinib 0.08 | [1] 0.243 | [2] -0.06 | [3] 0.056 | [4] -0.084 | [5] 0.071 | [6] 0.068 | [7] -0.034 | [8] -0.085 | IRAK-1-4 Inhibitor I 0.093

MICU2 (UniProt Q8IYU8)
inactive: erlotinib 0.025 | [1] 0.04 | [2] -0.008 | [3] -0.024 | [4] -0.011 | [5] 0.061 | [6] -0.094 | [7] -0.037 | [8] 0.038 | IRAK-1-4 Inhibitor I -0.044

MRPL16 (UniProt Q9NX20)
inactive: erlotinib 0.054 | [1] -0.008 | [2] -0.024 | [3] 0.052 | [4] 0.104 | [5] -0.02 | [6] 0.053 | [7] 0 | [8] 0.113 | IRAK-1-4 Inhibitor I 0.026

MRI1 (UniProt Q9BV20)
inactive: erlotinib -0.005 | [1] -0.008 | [2] 0.014 | [3] 0.015 | [4] 0.008 | [5] -0.013 | [6] -0.002 | [7] 0.015 | [8] -0.007 | IRAK-1-4 Inhibitor I 0.008

MRPL13 (UniProt Q9BYD1)
inactive: erlotinib -0.022 | [1] -0.008 | [2] -0.02 | [3] -0.044 | [4] -0.027 | [5] 0.02 | [6] -0.021 | [7] -0.119 | [8] -0.072 | IRAK-1-4 Inhibitor I 0.033

MOB3B (UniProt Q86TA1)
inactive: erlotinib 0.023 | [1] -0.162 | [2] 0.015 | [3] -0.091 | [4] -0.048 | [5] -0.036 | [6] -0.237 | [7] 0.102 | [8] -0.138 | IRAK-1-4 Inhibitor I 0.061

MKI67 (UniProt P46013)
inactive: erlotinib 0 | [1] 0.044 | [2] 0.01 | [3] 0.026 | [4] -0.043 | [5] 0.034 | [6] -0.005 | [7] -0.016 | [8] -0.025 | IRAK-1-4 Inhibitor I 0.001

MIEF1 (UniProt Q9NQG6)
inactive: erlotinib 0.049 | [1] 0.001 | [2] -0.02 | [3] 0.024 | [4] 0.025 | [5] 0.038 | [6] -0.02 | [7] 0.007 | [8] 0.112 | IRAK-1-4 Inhibitor I 0.02

MIF4GD isoform 3 (UniProt A9UHW6)
inactive: erlotinib -0.006 | [1] 0.041 | [2] 0.03 | [3] 0.028 | [4] -0.073 | [5] 0.039 | [6] -0.03 | [7] -0.052 | [8] 0.051 | IRAK-1-4 Inhibitor I -0.04

MINDY3 (UniProt Q9H8M7)
inactive: erlotinib 0.011 | [1] 0.04 | [2] -0.097 | [3] -0.027 | [4] -0.026 | [5] 0.02 | [6] 0.035 | [7] -0.001 | [8] 0.02 | IRAK-1-4 Inhibitor I 0.002

MIEF1 (UniProt L0R8F8)
inactive: erlotinib 0.039 | [1] -0.077 | [2] 0.05 | [3] 0.024 | [4] -0.042 | [5] 0.028 | [6] 0.017 | [7] 0.017 | [8] 0.008 | IRAK-1-4 Inhibitor I 0.028

MIA2 (UniProt Q96PC5)
inactive: erlotinib -0.083 | [1] -0.048 | [2] -0.019 | [3] 0.047 | [4] -0.047 | [5] -0.067 | [6] -0.028 | [7] -0.009 | [8] 0.02 | IRAK-1-4 Inhibitor I -0.008

Two entries drawn at random from those above, as already listed:
MIEF1 (UniProt Q9NQG6)
inactive: erlotinib 0.049 | [1] 0.001 | [2] -0.02 | [3] 0.024 | [4] 0.025 | [5] 0.038 | [6] -0.02 | [7] 0.007 | [8] 0.112 | IRAK-1-4 Inhibitor I 0.02

MINDY3 (UniProt Q9H8M7)
inactive: erlotinib 0.011 | [1] 0.04 | [2] -0.097 | [3] -0.027 | [4] -0.026 | [5] 0.02 | [6] 0.035 | [7] -0.001 | [8] 0.02 | IRAK-1-4 Inhibitor I 0.002

Carrying on:

MITD1 (UniProt Q8WV92)
inactive: erlotinib -0.016 | [1] 0.025 | [2] -0.019 | [3] 0.021 | [4] 0.014 | [5] -0.072 | [6] -0.016 | [7] -0.047 | [8] -0.02 | IRAK-1-4 Inhibitor I -0.033

MICALL1 (UniProt Q8N3F8)
inactive: erlotinib -0.025 | [1] 0.01 | [2] 0.071 | [3] -0.053 | [4] -0.043 | [5] 0.004 | [6] -0.008 | [7] -0.02 | [8] 0.046 | IRAK-1-4 Inhibitor I -0.011

MPV17L2 (UniProt Q567V2)
inactive: erlotinib -0.03 | [1] 0.16 | [2] 0.114 | [3] -0.078 | [4] 0.042 | [5] 0.004 | [6] -0.184 | [7] 0.003 | [8] 0.039 | IRAK-1-4 Inhibitor I 0.094

MRM1 (UniProt Q6IN84)
inactive: erlotinib -0.04 | [1] 0.016 | [2] -0.037 | [3] 0.019 | [4] -0.008 | [5] -0.002 | [6] -0.017 | [7] 0.009 | [8] 0.024 | IRAK-1-4 Inhibitor I 0.084

MLST8 (UniProt Q9BVC4)
inactive: erlotinib 0.038 | [1] 0.008 | [2] -0.041 | [3] 0.015 | [4] 0.012 | [5] 0.015 | [6] 0.002 | [7] -0.091 | [8] 0.033 | IRAK-1-4 Inhibitor I -0.001

MIER1 isoform 12 (UniProt Q8N108)
inactive: erlotinib -0.04 | [1] -0.018 | [2] 0.039 | [3] -0.001 | [4] -0.026 | [5] -0.035 | [6] 0.007 | [7] -0.01 | [8] 0.022 | IRAK-1-4 Inhibitor I -0.002

MID1IP1 (UniProt Q9NPA3)
inactive: erlotinib -0.055 | [1] 0.008 | [2] 0.032 | [3] 0.021 | [4] 0.347 | [5] -0.008 | [6] -0.025 | [7] 0.02 | [8] 0.061 | IRAK-1-4 Inhibitor I -0.027

MICAL1 isoform 4 (UniProt Q8TDZ2)
inactive: erlotinib 0.025 | [1] 0.022 | [2] -0.044 | [3] 0.021 | [4] -0.07 | [5] -0.031 | [6] -0.013 | [7] -0.018 | [8] 0.036 | IRAK-1-4 Inhibitor I 0.037

MOCS2 (UniProt O96007)
inactive: erlotinib 0.029 | [1] 0.003 | [2] 0.047 | [3] 0.038 | [4] -0.045 | [5] 0.02 | [6] 0.002 | [7] -0.003 | [8] -0.006 | IRAK-1-4 Inhibitor I 0.008

MIS18A (UniProt Q9NYP9)
inactive: erlotinib -0.01 | [1] 0.031 | [2] 0.023 | [3] 0.037 | [4] -0.029 | [5] 0.017 | [6] 0.02 | [7] 0.018 | [8] -0.049 | IRAK-1-4 Inhibitor I -0.018

MICOS13 (UniProt Q5XKP0)
inactive: erlotinib 0.084 | [1] 0.085 | [2] -0.13 | [3] 0.004 | [4] -0.002 | [5] -0.011 | [6] 0.047 | [7] 0.013 | [8] 0.015 | IRAK-1-4 Inhibitor I -0.008

MPC1 (UniProt Q9Y5U8)
inactive: erlotinib -0.056 | [1] -0.403 | [2] -0.119 | [3] -0.19 | [4] 0.035 | [5] 0.006 | [6] 0.296 | [7] -0.05 | [8] 0.086 | IRAK-1-4 Inhibitor I 0.051

MPG (UniProt P29372)
inactive: erlotinib 0.015 | [1] 0.015 | [2] -0.021 | [3] -0.018 | [4] -0.02 | [5] 0.019 | [6] -0.09 | [7] -0.049 | [8] 0.02 | IRAK-1-4 Inhibitor I -0.009

MGST3 (UniProt O14880)
inactive: erlotinib 0.007 | [1] 0.011 | [2] 0.008 | [3] 0.022 | [4] 0.011 | [5] -0.021 | [6] -0.054 | [7] -0.009 | [8] -0.035 | IRAK-1-4 Inhibitor I 0.019
